Data as given in publication doi:10.1101/2022.09.20.508788.
Read-outs that look alike come from different tables or passages of the source. No constants are given. Whether binding was seen depends on the method and setting. In cells and extracts the contact can be indirect. Some entries that bind do so weakly or less than the wild type.

Assays:
[1] = molecular target: HA tagged MR1 (Major Histocompatibility Related Protein 1) (UniProt Q95460); experiment: co-IP
[2] = molecular target: HA tagged MR1 (Major Histocompatibility Related Protein 1) (UniProt Q95460); experiment: co-IP; remark: listed apart in the source

| binding [1] | binding [2] | Molecule |
| --- | --- | --- |
| binds | – | SQSTM1/p62 (from UniProt Q13501 1-440) |
| binds | – | Calreticulin (CALR) (from UniProt P27797 18-417) |
| binds | binds weakly | Calnexin (CANX) (protein, UniProt P27824 21-592) HDGHDDDVIDIEDDLDDVIEEVEDSKPDTTAPPSSPKVTYKAPVPTGEVYFADSFDRGTLSGWILSKAKKDDTDDEIAKYDGKWEVEEMKESKLPGDKGLVLMSRAKHHAISAKLNKPFLFDTKPLIVQYEVNFQNGIECGGAYVKLLSKTPELNLDQFHDKTPYTIMFGPDKCGEDYKLHFIFRHKNPKTGIYEEKHAKRPDADLKTYFTDKKTHLYTLILNPDNSFEILVDQSVVNSGNLLNDMTPPVNPSREIEDPEDRKPEDWDERPKIPDPEAVKPDDWDEDAPAKIPDEEATKPEGWLDDEPEYVPDPDAEKPEDWDEDMDGEWEAPQIANPRCESAPGCGVWQRPVIDNPNYKGKWKPPMIDNPSYQGIWKPRKIPNPDFFEDLEPFRMTPFSAIGLELWSMTSDIFFDNFIICADRRIVDDWANDGWGLKKAADGAAEPGVVGQMIEAAEERPWLWVVYILTVALPVFLVILFCCSGKKQTSGMEYKKTDAPQPDVKEEEEEKEEEKDKGDEEEEGEEKLEEKQKSDAEEDGGTVSQEEEDRKPKAEEDEILNRSPRNRKPRRE |
